Measurements as given in paper PMC9905200.
Results are given in words; binding and its absence hold for the method and conditions named. In cells and extracts the contact can be indirect. Some entries that bind do so weakly or less than the wild type.

By UniProt entry, the sequences of proteins in these tests, tags left out. Where a name states a change or a piece, a line headed by the entry shows the natural chain unless it says otherwise. Chains listed by the source or under a name are the forms on record and can include a tag or linker. Residues count along the entry.
human apolipoprotein E3 (APOE3) expressed in transfected Huh7 cells (P02649, residues 19-317): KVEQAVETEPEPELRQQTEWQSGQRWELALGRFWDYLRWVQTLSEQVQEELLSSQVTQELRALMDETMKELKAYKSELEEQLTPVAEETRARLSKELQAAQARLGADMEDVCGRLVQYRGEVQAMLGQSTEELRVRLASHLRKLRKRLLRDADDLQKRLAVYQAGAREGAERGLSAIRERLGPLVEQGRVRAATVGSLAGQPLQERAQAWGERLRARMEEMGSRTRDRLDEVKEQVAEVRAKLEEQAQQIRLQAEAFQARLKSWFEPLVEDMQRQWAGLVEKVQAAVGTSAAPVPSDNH
human apolipoprotein E4 (APOE4) expressed in transfected Huh7 cells (P02649, form named): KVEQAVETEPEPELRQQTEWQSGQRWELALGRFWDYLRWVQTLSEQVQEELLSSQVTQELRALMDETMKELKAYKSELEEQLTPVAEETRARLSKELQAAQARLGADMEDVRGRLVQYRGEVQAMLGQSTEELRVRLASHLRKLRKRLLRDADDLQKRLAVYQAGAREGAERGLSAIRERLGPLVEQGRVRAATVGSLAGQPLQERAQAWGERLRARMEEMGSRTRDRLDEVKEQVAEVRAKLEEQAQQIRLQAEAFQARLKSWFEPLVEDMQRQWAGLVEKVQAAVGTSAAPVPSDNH
UniProt P21796: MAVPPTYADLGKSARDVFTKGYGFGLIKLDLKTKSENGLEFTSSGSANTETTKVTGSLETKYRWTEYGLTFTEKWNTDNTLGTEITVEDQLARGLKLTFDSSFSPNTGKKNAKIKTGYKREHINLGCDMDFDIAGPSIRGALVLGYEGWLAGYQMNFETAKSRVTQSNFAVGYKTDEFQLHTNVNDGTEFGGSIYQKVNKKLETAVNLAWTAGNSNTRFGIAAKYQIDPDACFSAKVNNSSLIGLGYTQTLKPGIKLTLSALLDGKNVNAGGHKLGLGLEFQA

Tests used:
[1] = target: human apolipoprotein E3 (APOE3) expressed in transfected Huh7 cells (human) (UniProt P02649); test: co-IP; APOE precipitated with anti-APOE antibody (sc-13521) and Protein G Sepharose from lysates (NP40 lysis buffer, 4 °C) of APOE3- or APOE4-transfected Huh7 cells, Western blot
[2] = target: human apolipoprotein E4 (APOE4) expressed in transfected Huh7 cells (human) (UniProt P02649); test: as above
[3] = target: human apolipoprotein E3 (APOE3) expressed in transfected Huh7 cells (human) (UniProt P02649); test: proximity ligation; in situ in intact fixed, permeabilized Huh7 cells transfected to express APOE3 or APOE4; PLA signals per cell counted; controls: no antibody, APOE negative control, BCKDHA-HH3 PLA, nontransfected cells
[4] = target: human apolipoprotein E4 (APOE4) expressed in transfected Huh7 cells (human) (UniProt P02649); test: as above
[5] = target: human apolipoprotein E3 (APOE3) in APOE3 targeted replacement mouse liver (human) (UniProt P02649); test: co-IP; APOE precipitated with anti-APOE antibody (sc-13521) and Protein G Sepharose from liver lysates (NP40 lysis buffer, 4 °C) of male APOE TR mice, Western blot of the eluates; mice fed ad libitum (AL) or under 30% dietary restriction (DR); interactions stronger upon DR
[6] = target: human apolipoprotein E4 (APOE4) in APOE4 targeted replacement mouse liver (human) (UniProt P02649); test: as above

Measured: binding

voltage-dependent anion-selective channel 1 (VDAC1), human, in Huh7 cells (from UniProt P21796 1-283)
binds: [1] | [2] | [3] | [4]

B1: branched-chain alpha-keto acid dehydrogenase (BCKD) complex subunit alpha (BCKDHA), mouse liver (protein, UniProt P50136 43-442)
chain: PSLDDKPQFPGASAEFVDKLEFIQPNVISGIPIYRVMDRQGQIINPSEDPHLPQEEVLKFYRSMTLLNTMDRILYESQREGRISFYMTNYGEEGTHVGSAAALERTDLVFGQYREAGVLMYRDYPLELFMSQCYGNVNDPGKGRQMPVHYGCKERHFVTISSPLATQIPQAVGAAYAAKRANANRIVICYFGEGAASEGDAHAGFNFAATLECPIIFFCRNNGYAISTPTSEQYRGDGIAARGPGYGIKSIRVDGNDVFAVYNATKEARRRAVAENQPFLIEAMTYRIGHHSTSDDSSAYRSVDEVNYWDKQDHPISRLRQYLLNQGWWDEEQEKAWRKQSRKKVMEAFEQAERKLKPNPSLLFSDVYQEMPAQLRRQQESLARHLQTYGEHYPLDHFEK
binds: [5] | [6]

B2: branched-chain alpha-keto acid dehydrogenase subunit alpha (BCKDHA), human, in Huh7 cells (protein, UniProt P12694 46-445)
chain: SSLDDKPQFPGASAEFIDKLEFIQPNVISGIPIYRVMDRQGQIINPSEDPHLPKEKVLKLYKSMTLLNTMDRILYESQRQGRISFYMTNYGEEGTHVGSAAALDNTDLVFGQYREAGVLMYRDYPLELFMAQCYGNISDLGKGRQMPVHYGCKERHFVTISSPLATQIPQAVGAAYAAKRANANRVVICYFGEGAASEGDAHAGFNFAATLECPIIFFCRNNGYAISTPTSEQYRGDGIAARGPGYGIMSIRVDGNDVFAVYNATKEARRRAVAENQPFLIEAMTYRIGHHSTSDDSSAYRSVDEVNYWDKQDHPISRLRHYLLSQGWWDEEQEKAWRKQSRRKVMEAFEQAERKPKPNPNLLFSDVYQEMPAQLRKQQESLARHLQTYGEHYPLDHFDK
binds: [1] | [2] | [3] | [4]
